The campaign covered roughly 360,000 compounds. About 10,000 (2.8%) were called active. The shares of active, inactive and inconclusive entries below differ from those in the screen. Calls come from the whole dose curve; as a rule, active = well fitted inhibition curve with a large enough effect; inconclusive = small, poorly fitted or top-dose-only effect; inactive = flat fitted curve, though single readings scatter. Potencies beside an inconclusive call are fits to weak or partial responses and may not hold up.
target: Serine/threonine-protein kinase PLK1 (Homo sapiens) (UniProt P53350); experiment: qHTS for Inhibitors of PLK1-PDB (polo-like kinase 1 - polo-box domain): Primary Screen; settings: Plk1 PBD binding of FITC phosphopeptide, fluorescence polarization; note: nearly all actives have a fitted effect of over 65% in size; for max response, negative = inhibition: series mostly up to about 57 µM
% is set by controls: 0 for no effect and ±100 for the full control effect; potency is the fitted concentration of half-maximal effect.

By UniProt entry, the sequences of proteins in these tests, tags left out.
UniProt P53350, whole entry, looked up: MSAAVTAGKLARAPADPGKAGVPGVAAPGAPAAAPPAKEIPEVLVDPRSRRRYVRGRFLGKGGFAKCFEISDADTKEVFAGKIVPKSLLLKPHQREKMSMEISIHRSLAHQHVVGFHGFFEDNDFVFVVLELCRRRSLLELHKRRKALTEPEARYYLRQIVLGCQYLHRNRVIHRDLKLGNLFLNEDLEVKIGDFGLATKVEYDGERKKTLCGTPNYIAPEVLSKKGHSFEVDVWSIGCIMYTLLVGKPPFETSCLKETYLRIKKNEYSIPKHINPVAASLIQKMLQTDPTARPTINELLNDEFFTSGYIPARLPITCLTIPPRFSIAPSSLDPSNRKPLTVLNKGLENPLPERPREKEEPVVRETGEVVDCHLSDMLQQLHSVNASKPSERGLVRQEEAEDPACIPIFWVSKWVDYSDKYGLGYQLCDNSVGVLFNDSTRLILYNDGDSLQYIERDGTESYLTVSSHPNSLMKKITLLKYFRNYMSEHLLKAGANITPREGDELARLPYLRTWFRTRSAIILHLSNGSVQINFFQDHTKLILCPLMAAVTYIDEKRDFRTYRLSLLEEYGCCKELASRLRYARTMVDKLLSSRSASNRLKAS

Compound | Potency | max response, negative = inhibition
CC1CCCN(C(=O)c2cc(-c3ccco3)nc3ccccc23)C1 (configuration not stated) | inconclusive: 26.7 µM [inhibitor, single point] | –
COc1ccc2cc(CN(CC3CCCO3)C(=S)NCc3ccco3)c(=O)[nH]c2c1 (configuration not stated) | inconclusive: 23.8 µM [inhibitor, single point] | –
CC(=O)Nc1ccc(/C(C)=N/Nc2nc(N3CCOCC3)nc(N3CCOCC3)n2)cc1 | active: 29.9 µM | –
S=c1nc2ccccc2c2nc(-c3cccnc3)[nH]n12 | inconclusive: 23.8 µM [inhibitor, partial curve] | –
S=C(NCCCN1CCOCC1)Nc1ccc(Nc2ccccc2)cc1 | inconclusive: 15 µM [inhibitor, partial curve] | –
CCCCn1c(-c2cccc(Br)c2)nc2cc3[nH]c(=O)c(C(C)C)nc3cc21 | – | inactive: -12.8%
CC(=O)N1CCN(c2ccc(NCc3cccs3)cc2)CC1 | inconclusive: 26.7 µM [inhibitor, partial curve] | –
CCN=C1S/C(=C\c2ccc(-c3cccc(C(=O)O)c3)o2)C(=O)N1CC | – | inconclusive: -38.5% [inhibitor]
CCN(CC)S(=O)(=O)c1cccc(C(=O)N2CC(O)CC2C(=O)OC)c1 (configuration not stated) | active: 29.9 µM | –
CCn1c(SCC(=O)c2ccc(Cl)cc2)nnc1C(C)C | inconclusive: 18.9 µM [inhibitor, partial curve] | –
CC(C)c1ccc2c(c1)C1(NN=C(c3ccccc3)S1)C(=O)N2 (configuration not stated) | inconclusive: 23.8 µM [inhibitor, partial curve] | –
COc1c(N2CCN(C(=S)NCc3ccccc3)C(C)C2)c(F)cc2c(=O)c(C(=O)O)cn(C3CC3)c12 (configuration not stated) | inconclusive: 37.7 µM [inhibitor, single point] | –
CC1(C)CC(=O)c2cnc(N)nc2C1 | active: 26.7 µM | –
COc1ccccc1C(=O)NNC(=O)C(=O)Nc1ccc(C)c(Cl)c1 | active: 29.9 µM | –
Cc1ccc2sc(N(CCCN(C)C)C(=O)CN3C(=O)c4ccccc4C3=O)nc2c1C | – | inactive: -13.9%
O=C1C(=O)c2cccnc2-c2ncccc21 | inconclusive: 26.7 µM [inhibitor, partial curve] | –
CC(C)(C)N/N=C/c1cc(Cl)cc([N+](=O)[O-])c1O | inconclusive: 21.2 µM [inhibitor, partial curve] | –
COCCn1nnnc1C(c1cccs1)N1CCN2CCCC2C1 (configuration not stated) | active: 18.9 µM | –
O=C(CCc1nnc2ccc(NCc3ccccc3)nn12)NC1CCCC1 | inconclusive: 23.8 µM [inhibitor, single point] | –
CCOc1ccc(C(=O)CCC(=O)NN2CCCCC2)cc1 | – | inactive: -1.15%
COc1ccc(N2CC(C(=O)Nc3nnc(SCC(=O)NCc4ccco4)s3)CC2=O)cc1 (configuration not stated) | – | inconclusive: -33% [inhibitor]
COc1cc(NC(=O)c2cccs2)c(OC)cc1NC(=O)CCC(=O)Nc1ccc2ncccc2c1 | – | inactive: -14.9%
COc1cc(/C=N\n2nnnc2N)ccc1OCc1ccc(F)cc1 | – | inactive: -7.71%
O=c1cc(-c2ccccc2)n(S(=O)(=O)c2ccccc2)o1 | inconclusive: 26.7 µM [inhibitor, partial curve] | –

Compound | Potency | max response, negative = inhibition
CN(CC(=O)Nc1ccccc1Cl)C(=O)COC(=O)CSc1ccc(F)cc1 | – | inactive: -7.69%
CCOC(=O)c1c(C)[nH]c(C(=O)OC)c1CCC(=O)OC | – | inactive: 5.1%
CCn1c(N)c(Br)c(=O)[nH]c1=O | – | inconclusive: -33% [inhibitor]
OCCN1CCN(C(=S)c2ccc(Cl)cc2)CC1 | active: 6.7 µM | –
COC(=O)c1cc([N+](=O)[O-])c(-n2cncn2)c([N+](=O)[O-])c1 | inconclusive: 33.6 µM [inhibitor, partial curve] | –
CCC(CC)C(=O)N(C)c1c(C)nc2c(OCc3ccc(Cl)cc3Cl)cccn12 | – | inactive: -2.88%
COc1cc(NC(=S)N2CCCCC2C)c(OC)cc1Cl (configuration not stated) | inconclusive: 23.8 µM [inhibitor, partial curve] | –
CC(C)(C)c1csc(NC(=O)CSc2nc3ccccc3c(=O)[nH]2)n1 | inconclusive: 29.9 µM [inhibitor, partial curve] | –
Cc1c(Cl)sn(-c2ccc(Cl)cc2)c1=O | active: 2.67 µM | –
Cc1csc(=Nc2ccccc2)n1Cc1ccco1 | inconclusive: 23.8 µM [inhibitor, single point] | –
O=C(c1ccco1)N(CCC(c1ccccc1)c1ccco1)Cc1ccco1 (configuration not stated) | inconclusive: 23.8 µM [inhibitor, partial curve] | –
O=C(Nc1sc2c(c1C(=O)O)CCC2)c1ccccc1 | inconclusive: 26.7 µM [inhibitor, partial curve] | –
Cc1oc(-c2ccccc2F)nc1CS(=O)CC(=O)NCc1ccccc1 (configuration not stated) | inconclusive: 23.8 µM [inhibitor, single point] | –
COCCCNc1nc2c(c(=O)[nH]c(=O)n2C)n1CC(O)COc1ccccc1 (configuration not stated) | – | inactive: -4.01%
CC(=O)N1CCc2cc(Br)cc(S(=O)(=O)NCc3ccccn3)c21 | inconclusive: 26.7 µM [inhibitor, single point] | –
O=C(Cn1cncn1)N/N=C/c1c2ccccc2cc2ccccc12 | inconclusive: 37.7 µM [inhibitor, single point] | –
COc1ccc(N(CC(=O)Nc2ccc(S(=O)(=O)N3CCOCC3)cc2)S(=O)(=O)c2ccc(F)cc2)cc1 | inconclusive: 29.9 µM [inhibitor, single point] | –
COc1cc(/C=C2/C(=O)NN(c3ccc(C)c(Cl)c3)C2=O)cc([N+](=O)[O-])c1O | inconclusive: 26.7 µM [inhibitor, single point] | –
Cc1cccc2c1-c1sc(C(=O)Nc3cccnc3)cc1CO2 | – | inactive: 0.0366%
C[C@H]1CCC(=O)N([C@H](CSc2ccccc2)Cc2ccccc2)CC1 | – | inactive: -3.56%
CCC1(C)N=C(c2ccc3c(c2)OCO3)CC(c2ccccc2O)N1 (configuration not stated) | active: 26.7 µM | –
Cc1cc(C)cc(N2C(=O)CC(Sc3nnnn3-c3ccccc3)C2=O)c1 (configuration not stated) | inconclusive: 26.7 µM [inhibitor, partial curve] | –
S=C1SCN(CCN2CCOCC2)CN1Cc1ccccc1 | – | inconclusive: -31.5% [inhibitor]
O=C(COc1ncnc2cc([N+](=O)[O-])ccc12)NC1CCCCC1 | inconclusive: 26.7 µM [inhibitor, partial curve] | –

Compound | Potency | max response, negative = inhibition
CC(C)(C)c1ccc(Cn2nnc3c(=O)[nH]c(C4CCCN(C(=O)c5ccco5)C4)nc32)cc1 (configuration not stated) | inconclusive: 42.3 µM [inhibitor, partial curve] | –
COc1ccc(-c2nc3cc([N+](=O)[O-])ccc3o2)cc1 | inconclusive: 37.7 µM [inhibitor, single point] | –
CCOC(=O)C(C)(C)Oc1cccc2c1S(=O)(=O)c1ccccc1-2 | – | inactive: 5.26%
COc1ccc(C(=O)Nc2ccccc2C(=O)O)cc1NC(=O)C(c1ccccc1)c1ccccc1 | inconclusive: 26.7 µM [inhibitor, single point] | –
O=C(CSc1ccccc1)Nc1cccc(S(=O)(=O)N2CCOCC2)c1 | active: 23.8 µM | –
O=C1C(Cl)=C(N2CCN(c3ccccc3[N+](=O)[O-])CC2)C(=O)c2ccccc21 | inconclusive: 2.99 µM [inhibitor, full curve] | –
CCOc1c(Br)cc(C(=O)Nc2cccc(S(=O)(=O)N3CCOCC3)c2)cc1OC | – | inactive: -2.02%
Fc1ccccc1-n1cn[nH]c1=S | – | inactive: -5.7%
CNC(=S)Nc1ccc(N2CCCC2)c(S(=O)(=O)Nc2ccc(OC)cc2)c1 | – | inconclusive: -33.3% [inhibitor]
Cc1cccc(CS(=O)(=O)c2ncc(Cl)c(C(=O)NCc3ccc4c(c3)OCO4)n2)c1 | inconclusive: 10.6 µM [inhibitor, partial curve] | –
Cc1cnc(NC(=O)CSc2c(Cl)cccc2Cl)s1 | inconclusive: 26.7 µM [inhibitor, partial curve] | –
O=C(CCl)c1ccc2[nH]c(=O)oc2c1 | active: 7.52 µM | –
COC1(NS(=O)(=O)c2ccc(Br)cc2)C(C)=CC(=O)C=C1C | active: 6.7 µM | –
O=C1CSC(c2ccc(Cl)cc2)N1 (configuration not stated) | inconclusive: 26.7 µM [inhibitor, partial curve] | –
CCn1cc(CN2CCCC(C(=O)c3ccc(-c4ccccc4)c(F)c3)C2)cn1 (configuration not stated) | – | inactive: 0.569%
COc1ccc(/C=C/C(=O)O)cc1COc1ccccc1C | – | inconclusive: -31.6% [inhibitor]
O=C1CN(CC(=O)Nc2cccc(Cl)c2Cl)c2ccccc2N1 | inconclusive: 23.8 µM [inhibitor, partial curve] | –
CC1(C(=O)NCc2ccccc2)CSCC(=O)N1CC(F)(F)F (configuration not stated) | – | inactive: 0.414%
O=C(/C=C/c1cccc(Cl)c1)c1nc2ccccc2[nH]1 | – | inconclusive: -31.7% [inhibitor]
CSCC[C@H](NC(=O)OC(C)(C)C)c1nnc(SCC=C(C)C)o1 | – | inactive: -1.58%
Cc1ccc(NC(=O)CN(C)C(=O)CSc2nncn2C)cc1 | – | inactive: -0.565%
Cc1ccc(S(=O)(=O)NC(C(=O)Oc2ccc3ccc(=O)oc3c2)c2ccccc2)cc1 (configuration not stated) | inconclusive: 26.7 µM [inhibitor, partial curve] | –
CCCn1ncc(C(=O)N(C)C2CCCN(Cc3ccccc3F)C2)c1C (configuration not stated) | inconclusive: 26.7 µM [inhibitor, single point] | –
Cc1c(Br)c([N+](=O)[O-])nn1CC(=O)Nc1sc2c(c1C(=O)OC(C)C)CCCC2 | active: 18.9 µM | –

3 of these compounds in a different format.
Compound	Potency	max response, negative = inhibition
O=C1CN(CC(=O)Nc2cccc(Cl)c2Cl)c2ccccc2N1	inconclusive: 23.8 µM [inhibitor, partial curve]	–
CC1(C(=O)NCc2ccccc2)CSCC(=O)N1CC(F)(F)F (configuration not stated)	–	inactive: 0.414%
O=C(/C=C/c1cccc(Cl)c1)c1nc2ccccc2[nH]1	–	inconclusive: -31.7% [inhibitor]
